# Assay results as given in publication PMC11514447.
# The chains behind the UniProt entries cited, without tags or fusion partners.
# UniProt P23588, whole entry: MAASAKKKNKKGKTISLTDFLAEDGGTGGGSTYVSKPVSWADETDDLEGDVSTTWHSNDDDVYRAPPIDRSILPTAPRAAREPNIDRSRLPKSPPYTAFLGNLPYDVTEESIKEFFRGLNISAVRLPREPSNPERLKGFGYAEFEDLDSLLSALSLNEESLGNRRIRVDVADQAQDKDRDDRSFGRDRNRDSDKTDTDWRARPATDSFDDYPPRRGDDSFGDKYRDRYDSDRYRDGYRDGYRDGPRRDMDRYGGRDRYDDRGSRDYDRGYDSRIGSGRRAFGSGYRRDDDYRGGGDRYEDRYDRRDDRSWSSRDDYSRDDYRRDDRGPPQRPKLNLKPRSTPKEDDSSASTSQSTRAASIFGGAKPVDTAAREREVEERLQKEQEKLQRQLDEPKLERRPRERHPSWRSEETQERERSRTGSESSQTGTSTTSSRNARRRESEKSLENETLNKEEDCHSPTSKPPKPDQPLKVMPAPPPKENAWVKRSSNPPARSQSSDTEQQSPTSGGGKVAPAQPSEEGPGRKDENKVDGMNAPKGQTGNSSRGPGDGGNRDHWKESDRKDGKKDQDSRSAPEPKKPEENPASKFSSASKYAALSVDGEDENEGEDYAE
# The exact form of at least one protein or probe is not confirmed. A negative result means that nothing was seen under these conditions. Weaker means in comparison with the reference protein, sequence or condition of that experiment. At least one verdict was read from the data and is not stated in words by the source.
# Molecular target: eIF4B (UniProt P23588)
# Experiment: fluorescence polarization
# Conditions: 2 mM ATP, 2 mM Mg2+, 20 mM HEPES/KOH pH 7.5, 100 mM KCl, 1 mM TCEP, 2 mM MgCl2, 40 nM FAM-RNA, 60 min, 25 C, recombinant protein
Sequence,binding result,also measured
AGAGAGAGAGAGAGAGAGAGAGAGAGAGAG [30 nt AG],,binding result (positive control): binds
AUGGCUACCUCUCGAUAUGAGCCAGUGGCUGAAAUGGGUGUCGGUGCC [CDK4-CDS],binds more weakly,
GGCUCUUUUCAGAGCCACCCA [His1-SL],binds more weakly,
UCCUUUGGCCAACUGCUUAGAAGCCCAACACAACCCAAA [His1-ssRNA],,"binding result (RNA pre-incubated with 200 nM UPF1 (TP308018), which blocked eIF4B binding): no binding"
